Reference: article PMC10371240
Results are given in words; binding and its absence hold for the method and conditions named. Binding seen in cells or lysates may run through a third protein. Here binding means that the protein was enriched with, or labelled near, the bait; the list need not be complete.

Amino acid sequences for entries named in this document (tags omitted).
UniProt Q9NZJ4: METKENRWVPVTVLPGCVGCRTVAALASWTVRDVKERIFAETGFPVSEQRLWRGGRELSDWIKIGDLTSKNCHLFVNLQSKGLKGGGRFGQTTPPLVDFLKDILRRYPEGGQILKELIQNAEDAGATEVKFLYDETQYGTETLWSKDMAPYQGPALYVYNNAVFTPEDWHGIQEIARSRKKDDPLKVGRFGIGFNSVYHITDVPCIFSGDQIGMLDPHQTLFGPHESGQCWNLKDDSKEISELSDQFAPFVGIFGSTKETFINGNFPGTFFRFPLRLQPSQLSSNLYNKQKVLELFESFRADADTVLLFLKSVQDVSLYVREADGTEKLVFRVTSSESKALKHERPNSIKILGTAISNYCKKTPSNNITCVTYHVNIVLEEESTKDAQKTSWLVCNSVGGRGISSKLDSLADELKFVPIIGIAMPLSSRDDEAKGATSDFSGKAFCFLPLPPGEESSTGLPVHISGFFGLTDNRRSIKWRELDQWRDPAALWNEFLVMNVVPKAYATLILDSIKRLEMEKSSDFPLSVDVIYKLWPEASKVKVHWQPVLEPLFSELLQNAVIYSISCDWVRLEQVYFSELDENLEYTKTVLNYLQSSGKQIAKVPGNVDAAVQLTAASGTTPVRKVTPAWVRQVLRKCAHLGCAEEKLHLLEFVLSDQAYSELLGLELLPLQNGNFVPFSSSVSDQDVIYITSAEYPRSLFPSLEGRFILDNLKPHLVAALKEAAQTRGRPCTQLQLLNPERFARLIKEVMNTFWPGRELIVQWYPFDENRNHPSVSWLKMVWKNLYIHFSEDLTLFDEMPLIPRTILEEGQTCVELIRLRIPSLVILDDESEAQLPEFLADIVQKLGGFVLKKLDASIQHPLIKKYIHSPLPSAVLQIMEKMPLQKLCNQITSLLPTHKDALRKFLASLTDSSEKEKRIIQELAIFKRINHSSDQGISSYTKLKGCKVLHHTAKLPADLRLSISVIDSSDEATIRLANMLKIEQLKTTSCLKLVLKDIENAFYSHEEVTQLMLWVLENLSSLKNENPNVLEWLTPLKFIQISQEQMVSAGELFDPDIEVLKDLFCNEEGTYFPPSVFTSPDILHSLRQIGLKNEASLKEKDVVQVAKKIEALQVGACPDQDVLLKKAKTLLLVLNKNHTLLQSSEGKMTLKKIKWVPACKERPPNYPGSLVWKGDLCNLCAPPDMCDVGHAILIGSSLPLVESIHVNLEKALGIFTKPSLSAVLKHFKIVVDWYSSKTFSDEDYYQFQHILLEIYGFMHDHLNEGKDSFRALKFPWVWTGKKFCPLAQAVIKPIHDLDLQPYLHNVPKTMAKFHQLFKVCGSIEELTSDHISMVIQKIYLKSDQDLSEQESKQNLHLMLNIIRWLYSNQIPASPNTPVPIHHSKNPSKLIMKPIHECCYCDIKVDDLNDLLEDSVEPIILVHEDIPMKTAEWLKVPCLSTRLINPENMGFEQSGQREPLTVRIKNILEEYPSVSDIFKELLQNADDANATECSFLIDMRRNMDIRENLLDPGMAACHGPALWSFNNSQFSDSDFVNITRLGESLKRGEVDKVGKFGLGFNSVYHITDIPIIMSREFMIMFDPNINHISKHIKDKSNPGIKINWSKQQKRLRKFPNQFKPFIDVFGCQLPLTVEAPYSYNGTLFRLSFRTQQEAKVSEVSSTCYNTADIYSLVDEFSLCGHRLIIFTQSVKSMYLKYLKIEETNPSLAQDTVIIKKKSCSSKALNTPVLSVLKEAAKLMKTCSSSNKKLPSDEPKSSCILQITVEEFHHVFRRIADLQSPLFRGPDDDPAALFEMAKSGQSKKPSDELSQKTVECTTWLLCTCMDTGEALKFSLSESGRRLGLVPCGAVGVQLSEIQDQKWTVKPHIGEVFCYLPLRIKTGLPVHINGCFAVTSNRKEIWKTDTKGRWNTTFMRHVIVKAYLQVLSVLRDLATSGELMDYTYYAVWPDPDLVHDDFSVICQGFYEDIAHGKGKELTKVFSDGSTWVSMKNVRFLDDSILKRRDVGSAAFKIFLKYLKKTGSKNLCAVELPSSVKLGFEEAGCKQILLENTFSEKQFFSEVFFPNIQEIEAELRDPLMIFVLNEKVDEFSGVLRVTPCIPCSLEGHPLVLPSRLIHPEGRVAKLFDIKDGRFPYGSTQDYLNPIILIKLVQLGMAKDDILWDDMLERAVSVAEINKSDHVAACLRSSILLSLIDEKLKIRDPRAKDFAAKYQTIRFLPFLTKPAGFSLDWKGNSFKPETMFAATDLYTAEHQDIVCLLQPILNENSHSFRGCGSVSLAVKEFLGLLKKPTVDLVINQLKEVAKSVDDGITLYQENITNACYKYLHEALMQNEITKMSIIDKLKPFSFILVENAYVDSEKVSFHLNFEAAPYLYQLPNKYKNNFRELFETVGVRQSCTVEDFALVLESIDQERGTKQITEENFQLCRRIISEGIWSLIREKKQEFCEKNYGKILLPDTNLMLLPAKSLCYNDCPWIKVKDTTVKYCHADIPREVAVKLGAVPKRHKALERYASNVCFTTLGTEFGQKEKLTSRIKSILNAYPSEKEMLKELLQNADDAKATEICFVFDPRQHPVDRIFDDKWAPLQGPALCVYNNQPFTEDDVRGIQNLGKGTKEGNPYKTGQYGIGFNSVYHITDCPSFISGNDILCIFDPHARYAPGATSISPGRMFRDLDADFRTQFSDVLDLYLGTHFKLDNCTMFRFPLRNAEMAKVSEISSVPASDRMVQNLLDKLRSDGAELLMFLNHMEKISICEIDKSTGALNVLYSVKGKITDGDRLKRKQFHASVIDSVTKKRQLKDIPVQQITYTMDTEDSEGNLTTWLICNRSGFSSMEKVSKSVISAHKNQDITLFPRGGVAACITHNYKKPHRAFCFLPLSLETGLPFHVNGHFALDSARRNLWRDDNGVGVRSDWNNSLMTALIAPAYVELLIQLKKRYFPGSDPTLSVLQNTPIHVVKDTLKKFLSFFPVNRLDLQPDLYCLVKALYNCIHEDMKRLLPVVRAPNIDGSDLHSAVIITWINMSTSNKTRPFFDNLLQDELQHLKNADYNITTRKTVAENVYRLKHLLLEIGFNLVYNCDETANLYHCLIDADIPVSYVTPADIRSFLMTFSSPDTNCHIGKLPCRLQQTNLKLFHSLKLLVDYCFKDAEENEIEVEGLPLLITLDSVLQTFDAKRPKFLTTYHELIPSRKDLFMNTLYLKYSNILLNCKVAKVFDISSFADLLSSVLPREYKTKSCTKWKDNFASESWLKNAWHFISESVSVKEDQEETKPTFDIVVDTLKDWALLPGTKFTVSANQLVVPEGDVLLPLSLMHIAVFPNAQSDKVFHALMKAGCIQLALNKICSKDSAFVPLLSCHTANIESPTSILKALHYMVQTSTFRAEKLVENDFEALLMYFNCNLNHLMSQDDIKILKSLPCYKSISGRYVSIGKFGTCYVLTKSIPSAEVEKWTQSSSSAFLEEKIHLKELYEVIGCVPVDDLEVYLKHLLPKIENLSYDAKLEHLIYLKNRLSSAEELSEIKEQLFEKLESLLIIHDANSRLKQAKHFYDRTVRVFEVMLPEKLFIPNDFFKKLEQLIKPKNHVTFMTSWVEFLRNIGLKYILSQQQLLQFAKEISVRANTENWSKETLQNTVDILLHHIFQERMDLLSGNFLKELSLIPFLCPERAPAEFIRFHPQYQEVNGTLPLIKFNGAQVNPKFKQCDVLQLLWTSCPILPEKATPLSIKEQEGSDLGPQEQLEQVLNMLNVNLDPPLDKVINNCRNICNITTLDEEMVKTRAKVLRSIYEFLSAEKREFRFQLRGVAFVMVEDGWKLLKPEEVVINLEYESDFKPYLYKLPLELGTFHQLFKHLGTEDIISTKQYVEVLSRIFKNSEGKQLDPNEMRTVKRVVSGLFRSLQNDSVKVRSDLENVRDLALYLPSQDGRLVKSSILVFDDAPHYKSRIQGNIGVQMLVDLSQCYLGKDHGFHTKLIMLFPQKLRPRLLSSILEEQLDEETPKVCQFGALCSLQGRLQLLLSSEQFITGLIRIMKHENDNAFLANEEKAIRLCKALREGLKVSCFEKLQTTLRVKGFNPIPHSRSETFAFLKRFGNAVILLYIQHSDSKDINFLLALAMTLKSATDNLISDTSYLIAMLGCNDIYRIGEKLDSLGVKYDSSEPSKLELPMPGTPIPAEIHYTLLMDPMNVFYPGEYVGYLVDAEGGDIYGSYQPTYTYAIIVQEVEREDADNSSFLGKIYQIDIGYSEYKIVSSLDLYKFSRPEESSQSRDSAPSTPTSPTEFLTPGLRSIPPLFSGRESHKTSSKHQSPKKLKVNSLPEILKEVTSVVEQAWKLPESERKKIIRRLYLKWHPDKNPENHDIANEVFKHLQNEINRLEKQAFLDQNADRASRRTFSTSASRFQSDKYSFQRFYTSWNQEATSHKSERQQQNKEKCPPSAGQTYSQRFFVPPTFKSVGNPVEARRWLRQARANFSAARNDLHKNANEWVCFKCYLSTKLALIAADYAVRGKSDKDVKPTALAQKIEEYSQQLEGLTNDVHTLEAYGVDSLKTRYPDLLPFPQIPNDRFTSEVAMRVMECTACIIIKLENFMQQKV
UniProt Q9Y4I1: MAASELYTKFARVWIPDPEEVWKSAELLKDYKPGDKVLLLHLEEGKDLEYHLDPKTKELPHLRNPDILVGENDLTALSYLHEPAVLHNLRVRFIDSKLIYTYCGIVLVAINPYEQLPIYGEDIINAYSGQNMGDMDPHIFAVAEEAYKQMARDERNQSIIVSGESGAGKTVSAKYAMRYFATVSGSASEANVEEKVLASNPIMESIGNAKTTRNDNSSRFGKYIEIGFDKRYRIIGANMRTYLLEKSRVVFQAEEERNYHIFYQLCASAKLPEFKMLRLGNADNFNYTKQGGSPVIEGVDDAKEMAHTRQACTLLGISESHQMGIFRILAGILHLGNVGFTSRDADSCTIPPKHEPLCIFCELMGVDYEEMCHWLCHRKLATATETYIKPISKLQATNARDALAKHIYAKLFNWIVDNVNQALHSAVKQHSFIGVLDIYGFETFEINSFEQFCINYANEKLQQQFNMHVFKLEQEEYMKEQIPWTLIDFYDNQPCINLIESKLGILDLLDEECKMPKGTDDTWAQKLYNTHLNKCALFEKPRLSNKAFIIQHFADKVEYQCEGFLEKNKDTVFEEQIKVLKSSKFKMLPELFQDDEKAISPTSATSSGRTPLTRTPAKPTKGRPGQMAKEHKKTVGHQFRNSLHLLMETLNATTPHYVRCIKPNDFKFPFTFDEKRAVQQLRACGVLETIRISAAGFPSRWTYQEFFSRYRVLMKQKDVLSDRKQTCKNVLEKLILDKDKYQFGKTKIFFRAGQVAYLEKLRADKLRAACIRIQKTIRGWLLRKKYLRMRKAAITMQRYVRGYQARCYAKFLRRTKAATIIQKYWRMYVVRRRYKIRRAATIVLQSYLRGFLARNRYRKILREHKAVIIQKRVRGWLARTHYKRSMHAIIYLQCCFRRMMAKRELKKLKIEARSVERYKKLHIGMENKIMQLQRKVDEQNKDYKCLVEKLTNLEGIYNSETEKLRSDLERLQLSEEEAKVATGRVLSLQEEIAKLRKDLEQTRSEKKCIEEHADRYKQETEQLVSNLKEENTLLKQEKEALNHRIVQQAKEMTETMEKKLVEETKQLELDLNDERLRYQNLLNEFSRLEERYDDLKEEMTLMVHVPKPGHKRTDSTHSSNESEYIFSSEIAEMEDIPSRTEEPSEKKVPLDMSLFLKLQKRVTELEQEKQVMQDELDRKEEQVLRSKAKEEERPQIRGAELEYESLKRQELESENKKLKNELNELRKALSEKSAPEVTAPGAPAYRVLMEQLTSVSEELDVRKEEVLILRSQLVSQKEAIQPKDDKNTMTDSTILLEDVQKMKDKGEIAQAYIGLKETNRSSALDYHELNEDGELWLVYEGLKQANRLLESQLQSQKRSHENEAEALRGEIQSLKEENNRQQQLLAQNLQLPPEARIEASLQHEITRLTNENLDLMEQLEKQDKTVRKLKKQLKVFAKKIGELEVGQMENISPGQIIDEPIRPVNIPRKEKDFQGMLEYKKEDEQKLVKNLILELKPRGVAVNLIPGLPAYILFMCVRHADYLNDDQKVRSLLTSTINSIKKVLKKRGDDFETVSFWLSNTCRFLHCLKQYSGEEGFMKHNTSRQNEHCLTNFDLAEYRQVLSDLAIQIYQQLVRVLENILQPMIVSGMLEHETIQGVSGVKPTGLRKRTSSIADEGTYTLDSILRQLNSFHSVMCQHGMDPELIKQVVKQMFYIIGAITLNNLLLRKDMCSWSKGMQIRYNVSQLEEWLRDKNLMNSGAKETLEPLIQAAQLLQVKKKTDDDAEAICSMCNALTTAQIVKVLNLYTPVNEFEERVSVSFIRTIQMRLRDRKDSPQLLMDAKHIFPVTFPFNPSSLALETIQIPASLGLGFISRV

Target: sacsin (human (endogenous in SH-SY5Y)) (UniProt Q9NZJ4)
Test: affinity purification with mass spectrometry; IP of endogenous sacsin (anti-sacsin antibody on magnetic Dynabeads) from lysate of WT SH-SY5Y cells differentiated into neurons; lysis in 5 mM EDTA pH 8.0, 0.1% Triton X-100 in PBS; overnight at 4°C; eluates by label-free quantitative LC-MS/MS; SACS-/- SH-SY5Y cells as negative control

myosin Va (from UniProt Q9Y4I1 1-1855)
binding: binds

B1: neurofilament light subunit (NFL) (protein, UniProt P07196 1-543)
chain: MSSFSYEPYYSTSYKRRYVETPRVHISSVRSGYSTARSAYSSYSAPVSSSLSVRRSYSSSSGSLMPSLENLDLSQVAAISNDLKSIRTQEKAQLQDLNDRFASFIERVHELEQQNKVLEAELLVLRQKHSEPSRFRALYEQEIRDLRLAAEDATNEKQALQGEREGLEETLRNLQARYEEEVLSREDAEGRLMEARKGADEAALARAELEKRIDSLMDEISFLKKVHEEEIAELQAQIQYAQISVEMDVTKPDLSAALKDIRAQYEKLAAKNMQNAEEWFKSRFTVLTESAAKNTDAVRAAKDEVSESRRLLKAKTLEIEACRGMNEALEKQLQELEDKQNADISAMQDTINKLENELRTTKSEMARYLKEYQDLLNVKMALDIEIAAYRKLLEGEETRLSFTSVGSITSGYSQSSQVFGRSAYGGLQTSSYLMSTRSFPSYYTSHVQEEQIEVEETIEAAKAEEAKDEPPSEGEAEEEEKDKEEAEEEEAAEEEEAAKEESEEAKEEEEGGEGEEGEETKEAEEEEKKVEGAGEEQAAKKKD
binding: binds
